From the supplement of paper PMC10849652
Some of the results follow.

Sequences of proteins named here, by UniProt entry; tags and fusion partners are left off. A change or cut given only in a name is not applied to a line headed by its entry.
UniProt Q7Z6L1: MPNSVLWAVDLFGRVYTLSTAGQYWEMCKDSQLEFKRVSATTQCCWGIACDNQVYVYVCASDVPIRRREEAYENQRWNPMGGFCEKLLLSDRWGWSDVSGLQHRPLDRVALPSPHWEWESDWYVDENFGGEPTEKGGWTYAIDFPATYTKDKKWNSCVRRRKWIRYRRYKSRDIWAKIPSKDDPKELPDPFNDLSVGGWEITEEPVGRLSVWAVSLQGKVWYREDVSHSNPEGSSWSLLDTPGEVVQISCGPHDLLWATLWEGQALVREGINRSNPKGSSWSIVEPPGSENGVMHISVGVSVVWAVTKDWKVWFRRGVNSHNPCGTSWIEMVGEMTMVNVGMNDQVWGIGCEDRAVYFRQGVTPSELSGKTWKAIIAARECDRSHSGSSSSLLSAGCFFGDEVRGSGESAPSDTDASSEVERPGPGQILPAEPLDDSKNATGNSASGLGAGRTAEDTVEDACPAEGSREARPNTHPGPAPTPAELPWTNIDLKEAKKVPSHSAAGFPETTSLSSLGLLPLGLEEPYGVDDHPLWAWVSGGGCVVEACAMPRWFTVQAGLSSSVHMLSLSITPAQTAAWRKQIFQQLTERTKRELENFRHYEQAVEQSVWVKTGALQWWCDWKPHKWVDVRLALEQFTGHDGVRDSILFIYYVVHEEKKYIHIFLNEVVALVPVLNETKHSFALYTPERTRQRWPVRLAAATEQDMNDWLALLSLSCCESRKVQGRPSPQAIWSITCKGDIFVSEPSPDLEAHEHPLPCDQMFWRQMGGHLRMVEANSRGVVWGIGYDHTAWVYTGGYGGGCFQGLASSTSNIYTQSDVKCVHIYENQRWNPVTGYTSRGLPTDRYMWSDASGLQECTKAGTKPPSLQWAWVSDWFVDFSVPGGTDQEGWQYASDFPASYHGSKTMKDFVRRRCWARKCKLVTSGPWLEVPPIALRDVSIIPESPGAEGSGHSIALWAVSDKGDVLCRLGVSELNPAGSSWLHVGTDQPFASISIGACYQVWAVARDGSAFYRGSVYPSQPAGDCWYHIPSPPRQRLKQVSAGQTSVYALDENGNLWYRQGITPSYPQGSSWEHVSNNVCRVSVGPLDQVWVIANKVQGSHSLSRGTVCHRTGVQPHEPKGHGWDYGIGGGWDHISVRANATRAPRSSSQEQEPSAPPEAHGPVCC
UniProt Q5VWN6: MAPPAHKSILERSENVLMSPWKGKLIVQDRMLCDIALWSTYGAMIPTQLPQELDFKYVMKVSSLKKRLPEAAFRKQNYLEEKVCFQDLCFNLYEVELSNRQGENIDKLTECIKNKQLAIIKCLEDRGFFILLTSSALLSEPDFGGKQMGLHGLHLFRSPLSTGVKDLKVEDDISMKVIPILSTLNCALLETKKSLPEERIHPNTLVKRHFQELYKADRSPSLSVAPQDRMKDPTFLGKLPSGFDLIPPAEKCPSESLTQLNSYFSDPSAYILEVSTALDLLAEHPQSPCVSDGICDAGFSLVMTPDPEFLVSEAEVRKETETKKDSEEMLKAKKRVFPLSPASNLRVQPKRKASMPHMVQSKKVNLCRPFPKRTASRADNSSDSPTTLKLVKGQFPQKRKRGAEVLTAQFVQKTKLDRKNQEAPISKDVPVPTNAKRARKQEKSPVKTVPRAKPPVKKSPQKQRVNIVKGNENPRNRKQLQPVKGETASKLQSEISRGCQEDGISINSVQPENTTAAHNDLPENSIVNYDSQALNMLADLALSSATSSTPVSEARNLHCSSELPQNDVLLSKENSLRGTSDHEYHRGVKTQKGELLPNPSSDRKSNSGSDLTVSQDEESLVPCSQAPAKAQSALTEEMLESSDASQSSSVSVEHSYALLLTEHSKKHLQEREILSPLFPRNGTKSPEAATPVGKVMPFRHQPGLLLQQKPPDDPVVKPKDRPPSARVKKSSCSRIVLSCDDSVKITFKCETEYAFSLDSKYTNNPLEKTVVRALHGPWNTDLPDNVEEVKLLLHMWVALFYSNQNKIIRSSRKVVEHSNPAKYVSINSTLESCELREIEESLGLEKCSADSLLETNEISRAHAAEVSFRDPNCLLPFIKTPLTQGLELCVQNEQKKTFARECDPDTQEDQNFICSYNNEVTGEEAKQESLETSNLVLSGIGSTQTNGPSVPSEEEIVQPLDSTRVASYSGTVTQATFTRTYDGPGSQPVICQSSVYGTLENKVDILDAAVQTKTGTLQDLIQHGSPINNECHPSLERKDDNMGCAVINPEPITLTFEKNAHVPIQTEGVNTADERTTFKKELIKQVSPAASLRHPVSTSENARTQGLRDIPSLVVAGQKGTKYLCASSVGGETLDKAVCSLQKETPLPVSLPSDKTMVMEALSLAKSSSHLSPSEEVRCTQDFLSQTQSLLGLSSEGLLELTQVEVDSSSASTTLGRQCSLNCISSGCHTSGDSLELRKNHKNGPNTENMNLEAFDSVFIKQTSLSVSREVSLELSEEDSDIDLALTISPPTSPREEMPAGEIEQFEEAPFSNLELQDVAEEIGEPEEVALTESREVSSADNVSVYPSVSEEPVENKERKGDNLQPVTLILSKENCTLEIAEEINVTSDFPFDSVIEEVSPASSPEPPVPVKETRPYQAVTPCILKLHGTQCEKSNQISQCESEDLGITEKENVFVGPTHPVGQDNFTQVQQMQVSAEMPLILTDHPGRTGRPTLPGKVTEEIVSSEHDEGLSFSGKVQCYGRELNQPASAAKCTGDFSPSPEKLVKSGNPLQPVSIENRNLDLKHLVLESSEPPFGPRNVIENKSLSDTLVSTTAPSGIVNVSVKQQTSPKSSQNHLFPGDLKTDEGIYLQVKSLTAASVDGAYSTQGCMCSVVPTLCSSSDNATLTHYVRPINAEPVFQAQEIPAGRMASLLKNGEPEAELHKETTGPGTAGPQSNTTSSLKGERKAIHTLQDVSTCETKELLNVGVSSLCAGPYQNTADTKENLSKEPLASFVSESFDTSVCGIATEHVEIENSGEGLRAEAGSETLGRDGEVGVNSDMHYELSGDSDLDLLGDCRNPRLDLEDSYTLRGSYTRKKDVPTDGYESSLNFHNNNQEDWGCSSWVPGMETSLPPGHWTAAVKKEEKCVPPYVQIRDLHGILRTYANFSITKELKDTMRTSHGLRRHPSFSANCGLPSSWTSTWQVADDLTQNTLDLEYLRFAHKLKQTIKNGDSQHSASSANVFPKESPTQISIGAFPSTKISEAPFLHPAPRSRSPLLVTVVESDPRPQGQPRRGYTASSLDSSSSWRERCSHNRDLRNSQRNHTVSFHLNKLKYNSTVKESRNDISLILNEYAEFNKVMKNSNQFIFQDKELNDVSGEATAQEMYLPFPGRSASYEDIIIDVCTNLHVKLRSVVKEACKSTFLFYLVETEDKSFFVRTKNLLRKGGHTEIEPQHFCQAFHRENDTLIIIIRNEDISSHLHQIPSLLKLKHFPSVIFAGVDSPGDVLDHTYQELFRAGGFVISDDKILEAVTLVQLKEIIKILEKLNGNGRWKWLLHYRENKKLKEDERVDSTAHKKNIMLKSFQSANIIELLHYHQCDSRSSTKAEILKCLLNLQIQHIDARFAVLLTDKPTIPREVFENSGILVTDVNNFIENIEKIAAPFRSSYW
UniProt P24557: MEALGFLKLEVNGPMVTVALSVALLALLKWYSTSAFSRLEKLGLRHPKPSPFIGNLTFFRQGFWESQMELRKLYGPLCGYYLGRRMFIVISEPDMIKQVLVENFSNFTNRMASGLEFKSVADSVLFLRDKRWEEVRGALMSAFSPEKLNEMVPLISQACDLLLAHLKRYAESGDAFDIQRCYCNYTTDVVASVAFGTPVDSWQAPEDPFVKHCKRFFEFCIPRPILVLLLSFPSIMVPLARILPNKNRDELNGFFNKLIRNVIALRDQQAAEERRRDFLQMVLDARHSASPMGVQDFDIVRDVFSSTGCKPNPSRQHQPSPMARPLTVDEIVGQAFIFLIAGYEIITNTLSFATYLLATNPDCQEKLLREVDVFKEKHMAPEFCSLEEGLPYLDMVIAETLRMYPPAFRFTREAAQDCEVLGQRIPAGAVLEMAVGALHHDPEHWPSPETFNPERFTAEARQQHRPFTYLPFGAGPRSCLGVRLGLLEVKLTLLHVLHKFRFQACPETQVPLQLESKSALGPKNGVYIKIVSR
UniProt Q9BXI6: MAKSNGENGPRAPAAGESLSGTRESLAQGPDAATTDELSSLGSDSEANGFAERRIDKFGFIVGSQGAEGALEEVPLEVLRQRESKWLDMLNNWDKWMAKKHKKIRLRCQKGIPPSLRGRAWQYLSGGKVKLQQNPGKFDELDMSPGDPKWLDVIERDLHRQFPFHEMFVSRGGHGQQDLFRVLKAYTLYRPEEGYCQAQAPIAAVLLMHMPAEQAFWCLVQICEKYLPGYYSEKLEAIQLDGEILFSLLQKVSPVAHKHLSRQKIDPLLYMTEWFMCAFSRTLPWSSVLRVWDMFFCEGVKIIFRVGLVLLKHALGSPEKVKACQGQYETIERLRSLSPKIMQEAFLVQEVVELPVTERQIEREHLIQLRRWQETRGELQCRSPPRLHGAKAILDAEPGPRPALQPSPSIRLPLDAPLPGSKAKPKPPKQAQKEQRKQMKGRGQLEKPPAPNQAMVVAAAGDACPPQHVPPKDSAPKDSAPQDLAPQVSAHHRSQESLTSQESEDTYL
UniProt A7MCY6, whole entry, looked up: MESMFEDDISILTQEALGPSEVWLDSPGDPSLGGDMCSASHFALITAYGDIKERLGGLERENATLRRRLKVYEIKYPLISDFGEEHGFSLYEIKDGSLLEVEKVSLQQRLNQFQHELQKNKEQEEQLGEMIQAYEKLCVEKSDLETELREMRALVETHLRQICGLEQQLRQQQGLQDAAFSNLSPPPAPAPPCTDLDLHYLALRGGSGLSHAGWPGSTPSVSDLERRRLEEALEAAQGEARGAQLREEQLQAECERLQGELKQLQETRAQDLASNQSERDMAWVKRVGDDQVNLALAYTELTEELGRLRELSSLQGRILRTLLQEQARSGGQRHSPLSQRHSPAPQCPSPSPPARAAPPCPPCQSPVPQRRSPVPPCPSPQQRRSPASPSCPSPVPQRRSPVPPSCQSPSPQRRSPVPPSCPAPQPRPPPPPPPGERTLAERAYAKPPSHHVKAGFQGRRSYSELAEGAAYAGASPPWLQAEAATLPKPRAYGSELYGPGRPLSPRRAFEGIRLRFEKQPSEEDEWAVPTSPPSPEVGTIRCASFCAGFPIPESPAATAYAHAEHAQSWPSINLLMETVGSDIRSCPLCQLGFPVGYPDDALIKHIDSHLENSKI
UniProt P0C1Z6, whole entry, looked up: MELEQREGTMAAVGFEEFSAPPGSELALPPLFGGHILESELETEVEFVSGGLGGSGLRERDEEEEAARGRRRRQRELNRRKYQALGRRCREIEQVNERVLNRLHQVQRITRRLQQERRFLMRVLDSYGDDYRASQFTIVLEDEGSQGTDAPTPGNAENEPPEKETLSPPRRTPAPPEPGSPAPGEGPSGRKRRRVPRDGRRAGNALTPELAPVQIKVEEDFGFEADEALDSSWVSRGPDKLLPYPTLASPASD

What was measured:
Assay in all cases: log2 fold change, soluble protein after heating vs DMSO (PISA); higher = thermal stabilisation; K562 lysate, 10 uM; active = over 0.2 and 3.5 SD of the protein, either way, in both replicates (recomputed)
[1] = compound: CCCS(=O)(=O)Nc1ccc(F)c(C(=O)c2c[nH]c3ncc(Cl)cc23)c1F
How it was run: (§1)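 Values give the log-two fold change in thermal stability against solvent controls, from duplicates. Crude K562 extract at 1 mg/mL protein, made by dounce homogenisation in PBS pH 7.4 with 1 mM MgCl2, was treated with 10 μM compound for 30 min. After 3 min heating across 48°C-58°C, aliquots were pooled, adjusted to 0.5% NP-40 at 4°C and centrifuged at 21,000xg for 90 min. The supernatant was measured by TMTpro 16plex LC-MS/MS with channel sums equalised.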

barasertib = compound: CCN(CCCOc1ccc2c(Nc3cc(CC(=O)Nc4cccc(F)c4)[nH]n3)ncnc2c1)CCOP(=O)(O)O [barasertib]
How it was run: as §1

volasertib = compound: CC[C@@H]1C(=O)N(C)c2cnc(Nc3ccc(C(=O)N[C@H]4CC[C@H](N5CCN(CC6CC6)CC5)CC4)cc3OC)nc2N1C(C)C [volasertib]
How it was run: as §1

[2] = compound: CCn1cc(-c2ccnc3[nH]c(-c4cccc(CN(C)C)c4)cc23)c(-c2ccc(NC(=O)N(C)C)cc2)n1
How it was run: as §1

[3] = compound: CN1CCC(CNc2ccc3ncc(-c4cccc(OC(F)(F)F)c4)n3n2)CC1
How it was run: as §1

saracatinib = compound: CN1CCN(CCOc2cc(OC3CCOCC3)c3c(Nc4c(Cl)ccc5c4OCO5)ncnc3c2)CC1 [saracatinib]
How it was run: as §1

alvocidib = compound: CN1CC[C@H](c2c(O)cc(O)c3c(=O)cc(-c4ccccc4Cl)oc23)[C@H](O)C1 [alvocidib]
How it was run: as §1

[4] = compound: CNC(=O)C1=CC=CC=C1NC2=NC(=NC=C2Cl)NC3=C(C=C(C=C3)N4CCOCC4)OC
How it was run: as §1

[5] = compound: CNc1nc(-c2ccc3c(N)n[nH]c3c2)cc(N2C[C@@H](C(=O)NC3CCCCC3)CC[C@H]2C)n1
How it was run: as §1

[6] = compound: COc1cc2nc(-c3cc(F)ccc3O)nc(N[C@@H]3CNC[C@H]3C(C)(C)O)c2cc1OC
How it was run: as §1

[7] = compound: CC[C@@H]1C(=O)N(C)c2cnc(Nc3ccc(C(=O)NC4CCN(C)CC4)cc3OC)nc2N1C1CCCC1
How it was run: as §1

[8] = compound: CCn1c(C(=O)N(C2CC2)C2CC2)cc2c3c(ncn3C)c(Nc3cc(C)n(C)n3)nc21
How it was run: as §1

Tubastatin A = compound: CN1CCc2c(c3ccccc3n2Cc2ccc(C(=O)NO)cc2)C1 [Tubastatin A]
How it was run: as §1

encorafenib = compound: COC(=O)N[C@@H](C)CNc1nccc(-c2cn(C(C)C)nc2-c2cc(Cl)cc(NS(C)(=O)=O)c2F)n1 [encorafenib]
How it was run: as §1

[9] = compound: COC(=O)[C@H](CCSC)NC(=O)C1=C(C=C(C=C1)NC[C@H](CS)N)C2=CC=CC=C2
How it was run: as §1

alisertib = compound: COc1cc(Nc2ncc3c(n2)-c2ccc(Cl)cc2C(c2c(F)cccc2OC)=NC3)ccc1C(=O)O [alisertib]
How it was run: as §1

gefitinib = compound: COc1cc2ncnc(Nc3ccc(F)c(Cl)c3)c2cc1OCCCN1CCOCC1 [gefitinib]
How it was run: as §1

sotrastaurin = compound: CN1CCN(c2nc(C3=C(c4c[nH]c5ccccc45)C(=O)NC3=O)c3ccccc3n2)CC1 [sotrastaurin]
How it was run: as §1

Measured: log2 fold change

TECPR1 isoform 4 (UniProt Q7Z6L1)
inactive: [1] -0.105 | barasertib -0.098 | volasertib -0.069 | [2] -0.092 | [3] 0.172 | saracatinib 0.092 | alvocidib -0.071 | [4] 0.107 | [5] -0.049 | [6] -0.264

TASOR2 (UniProt Q5VWN6)
inactive: barasertib 0.194 | [7] 0.126 | [8] 0.03 | saracatinib -0.036 | Tubastatin A 0.102 | [5] -0.057 | encorafenib -0.044 | [9] -0.037 | alisertib -0.017 | gefitinib 0.05

TBXAS1 isoform 3 (UniProt P24557)
inactive: sotrastaurin -0.034

TBC1D10A (UniProt Q9BXI6)
inactive: [1] 0.025 | barasertib -0.024 | volasertib 0.051 | [8] -0.07 | [2] -0.018 | [3] 0.054 | saracatinib 0.084 | sotrastaurin 0.081 | alvocidib -0.044 | Tubastatin A -0.034 | [4] 0.051 | [5] -0.099 | alisertib -0.037 | [6] 0.032 | gefitinib 0.029

TBKBP1 (UniProt A7MCY6)
inactive: barasertib 0.101

TFPT (UniProt P0C1Z6)
active: [5] 0.381
inactive: [1] -0.019 | barasertib 0.148 | volasertib 0.015 | saracatinib 0.005 | [4] -0.041 | [6] 0.027
